Test results: PubChem BioAssay AID1259415 (National Center for Advancing Translational Sciences (NCATS), 2018)
Screen size: about 410,000 compounds; about 18,000 (4.4%) were called active. The shares of active, inactive and inconclusive entries below differ from those in the screen. Cut-off read from the data, not from the text of the source: active = activity change below about -60%; inconclusive = no clear call, values can overlap the other calls; inactive = above about -39%.
% is set by controls: 0 for no effect and ±100 for the full control effect.

Assay: qHTS Assay for inhibitors of the human cytomegalovirus (HCMV)
Settings: HFF cells, HCMV-luciferase reporter, 72 h; at 57.5 µM; stronger effect = lower value
How it was run: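 Steps: HFFs plated, 16 h 37C; compounds added; HCMV-luciferase added to MOI 1 PFU/cell; 72 h 37C; OneGlo reagent, 5 min room temperature; luminescence read, normalized to controls.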
For `Cc1cccc(OCC(=O)Nc2nnc(S(=O)(=O)N3CCC(C)CC3)s2)c1`, the activity change, negative = inhibition was inactive: -36%.
With `O=c1c2cc3c(nc2ncn1Cc1ccc(Cl)cc1)CCCC3` the activity change, negative = inhibition was inactive: 29%.
For `Cc1nn(Cc2ccccc2Cl)c(Cl)c1C(=O)O`, the activity change, negative = inhibition was inactive: 6.71%.
With `CCOC(=O)/C(C#N)=C/c1cc(C)n(-c2ccccc2)c1C` the activity change, negative = inhibition was inconclusive: -58.5%.
For `O=C(CCC1CCCN(C(=O)CC2=CCCCC2)C1)N1CCN(c2ccccn2)CC1` (configuration not stated), the activity change, negative = inhibition was inconclusive: -55.8%.
For `Cc1cc(C(=O)N2CCCC(C)(C(=O)NS(=O)(=O)C3CC3)C2)n(C(C)(C)C)n1` (configuration not stated), the activity change, negative = inhibition was inactive: -6.16%.
In the case of `CN(C)CCCN(C(=O)c1ccc(S(=O)(=O)N2CCCCCC2)cc1)c1nc2cc3c(cc2s1)OCO3`, the activity change, negative = inhibition is reported as inactive: 8.54%.
In the case of `CCOc1ccc(OCC)c(NC(=O)c2nnn(CC(=O)Nc3cc(C)cc(C)c3)c2N)c1`, the activity change, negative = inhibition is reported as inconclusive: -50.6%.
With `CC(NC(=O)c1cccc(S(=O)(=O)N(C)c2ccccc2)c1)c1cccnc1` (configuration not stated) the activity change, negative = inhibition was inconclusive: -50.8%.
With `O=C(Cn1nnc2ccccc21)NNC(=S)NC1CCCCC1` the activity change, negative = inhibition was inactive: 22.4%.
With `Cc1cnnn1-c1ccc(C(=O)CCl)cc1` the activity change, negative = inhibition was inactive: 15.2%.
For `CCOc1cc(/C=N/NC(=O)C(N)=O)cc(Br)c1O`, the activity change, negative = inhibition was inconclusive: -43.2%.
In the case of `Cc1oc2ncnc(N3CCCCC3)c2c1C(=O)Nc1cccc(Cl)c1C`, the activity change, negative = inhibition is reported as inconclusive: -47.7%.
In the case of `C=CCNC(=O)N1CCC(n2nccc2NC(=O)CCCc2ccccc2)CC1`, the activity change, negative = inhibition is reported as inconclusive: -40%.
In the case of `CCC1CCCCN1S(=O)(=O)c1ccc(NC(=O)c2nc(SC)ncc2Cl)cc1` (configuration not stated), the activity change, negative = inhibition is reported as inconclusive: -50.7%.
For `COc1ccc([N+](=O)[O-])cc1NCc1ccco1`, the activity change, negative = inhibition was inconclusive: -59.1%.
For `Cc1ccc2oc(=O)c(-c3nc4ccc(C)cc4[nH]3)cc2c1`, the activity change, negative = inhibition was inconclusive: -41.5%.
With `CNc1snc(C)c1C(=O)OC(C)C(=O)Nc1cccc(C)c1` (configuration not stated) the activity change, negative = inhibition was inconclusive: -48.5%.
In the case of `CC(=NCCc1ccccc1)c1c(O)n(C)c(=O)n(C)c1=O`, the activity change, negative = inhibition is reported as inconclusive: -41.7%.
In the case of `Cc1cccc(C)c1NC(=O)CNC(=O)C12CC3CC(CC(O)(C3)C1)C2`, the activity change, negative = inhibition is reported as active: -73.1%.
For `COc1ccc(C(=O)CSc2nnc(-c3ccco3)n2C)cc1`, the activity change, negative = inhibition was inactive: -8.34%.
With `COc1cc(C(CCN2CCCCC2)c2c(OC)cc(OC)c3c(C)cc(=O)oc23)cc(OC)c1OC` (configuration not stated) the activity change, negative = inhibition was inactive: -2.79%.
In the case of `Cc1cc(N/N=C/c2ccc(O)cc2O)nc(-n2nc(C)cc2C)n1`, the activity change, negative = inhibition is reported as inconclusive: -56.8%.
In the case of `COc1ccc(C2NC(=S)N(c3ccccc3)C(C)=C2C(=O)Nc2ccccc2)cc1` (configuration not stated), the activity change, negative = inhibition is reported as inactive: 40%.
For `CCc1nnc(NS(=O)(=O)c2ccc(N=Cc3c(C)[nH]n(-c4cccc(Cl)c4)c3=O)cc2)s1`, the activity change, negative = inhibition was inconclusive: -54.9%.
For `COC(OC)c1ccc(C#N)c(SCc2ccccc2)n1`, the activity change, negative = inhibition was inconclusive: -40.3%.
For `Cc1c(Cl)cccc1-n1c(SCC(=O)NCc2ccccc2)nc2n[nH]c(C)c2c1=N`, the activity change, negative = inhibition was active: -60.8%.
With `COc1cc(OC)c(S(=O)(=O)Nc2ccc(C(=O)O)cc2)cc1S(=O)(=O)Nc1ccc(C(=O)O)cc1` the activity change, negative = inhibition was inactive: -5.33%.
In the case of `Cc1ccc[n+](C(C)C(=O)c2ccc(-c3ccccc3)cc2)c1` (configuration not stated), the activity change, negative = inhibition is reported as active: -97.5%.
For `CCN1C(=O)C(CC(=O)Nc2ccc(OC)cc2)N(CCc2ccccc2)C1=S` (configuration not stated), the activity change, negative = inhibition was inconclusive: -40.9%.
With `COc1cccc(C(=O)N2CC(=O)Nc3ccc(C)cc3C2c2ccc(F)cc2)c1OC` (configuration not stated) the activity change, negative = inhibition was inactive: 16.3%.
In the case of `O=C(COC(=O)COc1ccc(Br)cc1)NC1CCS(=O)(=O)C1` (configuration not stated), the activity change, negative = inhibition is reported as inactive: -7.38%.
In the case of `CC(=O)/C=C(\C)Nc1ccccc1O`, the activity change, negative = inhibition is reported as inconclusive: -48.4%.
In the case of `COc1c(C)cc(Br)cc1C(=O)Nc1ccccc1C`, the activity change, negative = inhibition is reported as inconclusive: -47.6%.
With `CCCCNC(=O)Cn1cnc2c(cnn2-c2ccc(C)cc2)c1=O` the activity change, negative = inhibition was inconclusive: -44.6%.
In the case of `CCOC(=O)c1ccc2nc(NC(C)=O)sc2c1`, the activity change, negative = inhibition is reported as inactive: 118%.
For `COc1ccc(NC(=O)c2ccc3snnc3c2)cc1`, the activity change, negative = inhibition was inactive: 26.1%.
For `CC(C)Cc1nc2oc3c(NCCCN4CCOCC4)ncnc3c2c2c1CCC2`, the activity change, negative = inhibition was inconclusive: -40.6%.
In the case of `O=c1oc(Nc2ccccc2Cl)nc2ccccc12`, the activity change, negative = inhibition is reported as inactive: 6.03%.
For `Cc1ccc(NC(=O)c2c(C)oc3ccc(O)c(CN4CCCCC4)c23)cc1`, the activity change, negative = inhibition was active: -65%.
With `Cc1ccc(Cl)cc1NC(=O)c1cnn2c(C(F)F)cc(-c3ccccc3)nc12` the activity change, negative = inhibition was inconclusive: -46%.
With `COc1ccc(NC(=O)c2cc(S(=O)(=O)N3CCCCC3)c[nH]2)cc1Cl` the activity change, negative = inhibition was inconclusive: -59.2%.
For `CCOC(=O)c1ccc(NC(=O)NC2CC3CCC(C2)N3)cc1` (configuration not stated), the activity change, negative = inhibition was inactive: -27.2%.
With `Cc1cc(NC(=O)CCCN2C(=O)/C(=C/c3cccs3)SC2=S)no1` the activity change, negative = inhibition was inconclusive: -58.9%.
With `O=S(=O)(c1ccc(Cl)c(NC(=S)N/N=C/c2ccc(O)cc2)c1)N1CCOCC1` the activity change, negative = inhibition was active: -82.6%.
For `CCC(C)c1ccc2oc(-c3ccc(NC(=O)Cn4cnc5c(=O)n(C)c(=O)n(C)c54)cc3)nc2c1` (configuration not stated), the activity change, negative = inhibition was active: -72.7%.
With `OCCNc1ncnc2c1c(-c1ccccc1)c(-c1ccccc1)n2Cc1ccco1` the activity change, negative = inhibition was active: -62.9%.
For `Cc1sc2ncnc(SC(C)C(=O)N3c4ccccc4Sc4ccccc43)c2c1C` (configuration not stated), the activity change, negative = inhibition was inconclusive: -52.1%.
For `C=CCSc1n[nH]c(-c2ccccc2)n1`, the activity change, negative = inhibition was active: -89.3%.
With `CC1CCN(C(=O)c2ccccc2NC(=O)c2nsc3ccccc23)CC1` the activity change, negative = inhibition was inactive: 0%.
With `O=C1NC2(CCCC2)C(=O)N1CC(=O)N(Cc1ccccc1)c1ccccc1` the activity change, negative = inhibition was inactive: -32.5%.
With `O=C(NNC(=O)OCc1ccccc1)OCc1ccccc1` the activity change, negative = inhibition was active: -98.9%.
In the case of `N#Cc1sc2nc(C3CC3)cc(-c3ccccc3)c2c1N`, the activity change, negative = inhibition is reported as inconclusive: -45.6%.
With `Cc1cc(NC(=O)COn2nnc3ccc(S(C)(=O)=O)cc32)ccc1Br` the activity change, negative = inhibition was inconclusive: -57.1%.
For `NS(=O)(=O)c1cccc(NC(=O)Cn2nc(C(=O)O)c3ccccc3c2=O)c1`, the activity change, negative = inhibition was inactive: -32%.
For `Cc1ccc(NC(=O)c2ccc(Cl)c(S(=O)(=O)N3CCCC3)c2)nc1`, the activity change, negative = inhibition was inconclusive: -58.2%.
For `C/C(N)=C(/C#N)C(=O)CSc1nc(C2CCCCC2)n(-c2ccccc2)n1`, the activity change, negative = inhibition was inconclusive: -44.8%.
For `O=C(NCc1nnc(SCC(=O)N2CCCCC2)o1)c1ccc(F)cc1`, the activity change, negative = inhibition was active: -84.9%.
With `COc1ccc(C(c2nnnn2C2CCCCC2)N2CCC3(CC2)C(=O)NCN3c2ccccc2)cc1` (configuration not stated) the activity change, negative = inhibition was inconclusive: -42.6%.
For `CC(C)(C)NCCC(O)c1cc(C(F)(F)F)nc2c(C(F)(F)F)cccc12` (configuration not stated), the activity change, negative = inhibition was inconclusive: -47.7%.
In the case of `CCN(CC)CCN1CCn2c3c(c4cc(C)ccc42)CCCC31` (configuration not stated), the activity change, negative = inhibition is reported as inconclusive: -58.3%.
With `O=C(N/N=C/C1=C(N2CCOCC2)C(=C\c2ccccc2)/CC1)Nc1ccccc1` the activity change, negative = inhibition was active: -70.9%.
With `CC(C)Oc1ccc(S(=O)(=O)N2CCOCC2)cc1NC(=O)CSc1nnc(C2CC2)n1C` the activity change, negative = inhibition was inactive: -1.33%.
For `COCCn1c(C2CCCCC2)nc2sc3ccccc3c(=O)c2c1=O`, the activity change, negative = inhibition was inactive: 15%.
In the case of `CCN(CC)CCNC(=O)c1ccc2c(c1)NC(=O)C(CS(=O)(=O)Cc1ccc(F)cc1Cl)N2` (configuration not stated), the activity change, negative = inhibition is reported as inconclusive: 0%.
With `COc1ccc(C(=O)c2oc3ccccc3c2NC(=O)COc2cccc(C)c2)cc1` the activity change, negative = inhibition was inactive: 9.86%.
For `CNc1nc(-c2ccccn2)nnc1-c1ccccc1`, the activity change, negative = inhibition was active: -105%.
For `CC(=O)Nc1cc(C(=O)NCc2ccc(F)cc2)ccc1Sc1ccc(C)cc1`, the activity change, negative = inhibition was inactive: -28.7%.
In the case of `O=c1c(-c2ccc3c(c2)OCCO3)coc2cc(O)cc(O)c12`, the activity change, negative = inhibition is reported as inactive: 129%.
For `Cc1nn(-c2ccccc2)c(-n2cccc2)c1C(=O)NCc1ccccc1Cl`, the activity change, negative = inhibition was inactive: -19.3%.
For `COc1ccccc1N=Cc1c(C)[nH]n(-c2ccc(C)cc2C)c1=O`, the activity change, negative = inhibition was inconclusive: -40.3%.
For `CC(=O)c1ccc(OCCCC(=O)Nc2ccc(C)c(S(=O)(=O)N3CCOCC3)c2)cc1`, the activity change, negative = inhibition was inconclusive: -42.6%.
For `Cc1ccc(-c2nn3cnnc3c3ccccc23)cc1`, the activity change, negative = inhibition was inactive: -1.21%.
With `Cc1ccc(-n2cnc3c(sc4nccc(N(C)C)c43)c2=O)cc1` the activity change, negative = inhibition was inconclusive: -50.4%.
With `Cc1oc(-c2ccc(Cl)cc2)nc1CS(=O)CC(=O)NCCCN1CCN(Cc2ccccc2)CC1` (configuration not stated) the activity change, negative = inhibition was active: -93.4%.
For `CC(C)(C)OC(=O)N1CCC(c2c(C(=O)Nc3cccc(C(F)(F)F)c3)cnn2-c2ccc(F)cc2F)CC1`, the activity change, negative = inhibition was inconclusive: 0%.
In the case of `Cc1cccc(N(C(=O)c2csnn2)C(C(=O)NCc2ccccc2)c2ccc(C)o2)c1` (configuration not stated), the activity change, negative = inhibition is reported as inconclusive: -50.1%.
In the case of `C=CCSc1nc(N)c(C#N)c(-c2ccc(C)cc2)c1C#N`, the activity change, negative = inhibition is reported as inconclusive: -43.8%.
In the case of `CN(C)S(=O)(=O)c1cccc(NC(=O)c2cccc(N3C(=O)CCC3=O)c2)c1`, the activity change, negative = inhibition is reported as inactive: -12.8%.
For `O=C(CN1CCN(Cc2ccc3c(c2)OCO3)CC1)Nc1cc(S(=O)(=O)N2CCCC2)ccc1Cl`, the activity change, negative = inhibition was inconclusive: -49.2%.
In the case of `CCN(c1ccc(C)cc1C)S(=O)(=O)c1nnc(NC(=O)C(C)(C)C)s1`, the activity change, negative = inhibition is reported as inactive: 32.7%.
For `O=C(CCSc1nnc(-c2ccncc2)o1)Nc1cccc(Cl)c1`, the activity change, negative = inhibition was inconclusive: -40.2%.
For `CCOc1ccc(S(=O)(=O)Nc2ccc(C(=O)N/N=C/c3c(C)nn(-c4ccccc4)c3N3CCCC3)cc2)cc1`, the activity change, negative = inhibition was inconclusive: -59.8%.
For `COc1ccc(OC)c(NCc2cccn2-c2nnc(N3CCC(C)CC3)s2)c1`, the activity change, negative = inhibition was inconclusive: -46.4%.
For `CC(C)(C)OC(=O)N1CCC(c2c(C(=O)Nc3ccc4c(c3)OCCO4)cnn2-c2ccc(F)cc2)CC1`, the activity change, negative = inhibition was inactive: -5.86%.
For `O=C(CSc1ccc2ccccc2n1)NCCC1=CCCCC1`, the activity change, negative = inhibition was inconclusive: -40.8%.
For `O=C(O)C(Cc1c[nH]c2ccccc12)N1C(=O)C2C3c4ccccc4C(c4ccccc43)[C@@H]2C1=O` (some centres not stated), the activity change, negative = inhibition was inconclusive: -41.4%.
